Measured values published in publication PMC12431657, “Discovery and mechanistic insights of dibenzoylmethane as a broad spectrum inhibitor of coronavirus” (PLOS Pathogens, 2025).
Structures can show the parent of a compound that is named as a salt. Where two headings read alike, the source gives them in different places. Out of some 3,300 compounds screened, about 95 (3%) showed an effect of 50% or more. Some of the results follow.

Test system: HCoV-229E
Design: species or system Huh-7; HTS, protection from HCoV-229E induced cell death, luminescent cell viability (CellCounting-Lite 2.0), inhibition rate
Details: 24 h post infection, 1 h compound pre-incubation, 10 µM, inhibitor

SMILES: Nc1ccn([C@@H]2O[C@H](COP(=O)(O)OP(=O)(O)OP(=O)(O)O)[C@@H](O)[C@H]2O)c(=O)n1 [Cytidine-5'-triphosphate (disodium)]
- 229E Inhibition rate: 10.3%

SMILES: CC(C)C(=O)C(=O)O [3-Methyl-2-oxobutanoic acid]
- 229E Inhibition rate: 8.3%

SMILES: NC(N)=NCCCC(=O)O [4-Guanidinobutanoic acid]
- 229E Inhibition rate: 11.4%

SMILES: C=C1[C@@H](C)[C@H]2[C@H](Cc3ccccc3)NC(=O)[C@]23OC(=O)/C=C/[C@H](O)CCC[C@@H](C)C/C=C/[C@H]3[C@@H]1O [Cytochalasin B]
- 229E Inhibition rate: 14.6%

SMILES: O=P(O)(O)O[C@H]1[C@H](OP(=O)(O)O)[C@@H](OP(=O)(O)O)[C@H](OP(=O)(O)O)[C@@H](OP(=O)(O)O)[C@H]1OP(=O)(O)O [Phytic acid (dodecasodium hydrate)]
- 229E Inhibition rate (229E Inhibition rate, 24 h): 9.4%

SMILES: COc1cc2oc(=O)ccc2cc1O[C@@H]1O[C@H](CO)[C@@H](O)[C@H](O)[C@H]1O [Magnolioside]
- 229E Inhibition rate: 9.5%

SMILES: COc1cc(-c2coc3cc4c(c(OC)c3c2=O)OCO4)cc(OC)c1OC [Irisflorentin]
- 229E Inhibition rate: 11.3%

SMILES: COc1c(O)cc2occ(-c3ccc(O)cc3)c(=O)c2c1O [Tectorigenin]
- 229E Inhibition rate: 11.7%

SMILES: NCCCCC(=O)O [5-Aminovaleric acid]
- 229E Inhibition rate: 13.8%

SMILES: c1ccc(CC2=NCCN2)cc1 [Tolazoline (hydrochloride)]
- 229E Inhibition rate: 16.2%

SMILES: NC(Cc1cc(I)c(Oc2cc(I)c(OS(=O)(=O)O)c(I)c2)c(I)c1)C(=O)O (centres unmarked) [Thyroxine sulfate]
- 229E Inhibition rate: 8.9%

SMILES: O=C(O)CCCc1c[nH]c2ccccc12 [Indole-3-butyric acid]
- 229E Inhibition rate: 9.7%

SMILES: CC(C)[C@@H](C)/C=C/[C@@H](C)[C@H]1CC[C@H]2C3=CC=C4C[C@@H](O)CC[C@]4(C)[C@H]3CC[C@]12C [Ergosterol]
- 229E Inhibition rate: 4.5%

SMILES: C=CCc1ccc(O)c(OC)c1 [Eugenol]
- 229E Inhibition rate: 19%

SMILES: OC[C@@H](O)[C@@H](O)[C@H](O)[C@H](O)CO [D-Mannitol]
- 229E Inhibition rate: 11.2%

SMILES: CC(=O)N[C@@H](Cc1ccc(O)cc1)C(=O)O [N-Acetyl-L-tyrosine]
- 229E Inhibition rate: 17.6%

SMILES: CC1=COC(=O)[C@H]2[C@@H]1CC[C@@H]2C [4aα,7α,7aα-Nepetalactone]
- 229E Inhibition rate: 8.3%

SMILES: O=C(OCC1=C[C@@H](O)[C@@H]2C=CO[C@@H](O[C@@H]3O[C@H](CO)[C@@H](O)[C@H](O)[C@H]3O)[C@H]12)c1ccc(O)cc1 [Agnuside]
- 229E Inhibition rate: 19%

SMILES: Nc1ccn([C@@H]2O[C@H](COP(=O)(O)OP(=O)(O)O)[C@@H](O)[C@H]2O)c(=O)n1 [Cytidine 5'-diphosphate (trisodium salt)]
- 229E Inhibition rate: 14.7%

SMILES: CC(C)=CC(=O)NCC(=O)O [3-Methylcrotonylglycine]
- 229E Inhibition rate: 20.3%

SMILES: CCC(=O)CO [1-Hydroxy-2-butanone]
- 229E Inhibition rate: 8.3%

SMILES: COc1cc(OC)c2c(=O)cc(-c3cc(OC)c(OC)c(OC)c3)oc2c1 [3',4',5',5,7-Pentamethoxyflavone]
- 229E Inhibition rate: 8.5%

SMILES: CC(C)C1=Cc2ccc3c(c2C(=O)C1=O)CCCC3(C)C [Miltirone]
- 229E Inhibition rate: 4.2%

SMILES: COc1cc(-c2oc3cc(OC)c(OC)c(O)c3c(=O)c2OC)ccc1O [Chrysosplenetin]
- 229E Inhibition rate: 22.9%

SMILES: C[C@@H]1O[C@@H](OC[C@H]2O[C@@H](Oc3c(-c4ccc(O)cc4)oc4cc(O)cc(O)c4c3=O)[C@H](O[C@@H]3O[C@@H](C)[C@H](O)[C@@H](O)[C@H]3O)[C@@H](O)[C@H]2O)[C@H](O)[C@H](O)[C@H]1O [Mauritianin]
- 229E Inhibition rate: 0%

SMILES: C=C(C)[C@@H]1CC[C@]2(COC(C)=O)CC[C@]3(C)[C@H](CC[C@@H]4[C@@]5(C)CC[C@H](OC(C)=O)C(C)(C)[C@@H]5CC[C@]43C)[C@@H]12 [Betulin diacetate]
- 229E Inhibition rate: 4.9%

SMILES: O=c1c(O)c(-c2ccccc2)oc2ccc(O)cc12 [3,6-Dihydroxyflavone]
- 229E Inhibition rate: 26.4%

SMILES: O=C(O)[C@H]1CCCN1 [(R)-pyrrolidine-2-carboxylic acid]
- 229E Inhibition rate: 8%

SMILES: C=CC(C)(O)CCC=C(C)CCC=C(C)C (mixture of isomers) [Nerolidol]
- 229E Inhibition rate: 17.9%

SMILES: N[C@@H](CCO)C(=O)O [L-Homoserine]
- 229E Inhibition rate: 10.6%

SMILES: C/C=C(\CC[C@@H](C)[C@H]1CC[C@H]2[C@@H]3CC=C4C[C@@H](O)CC[C@]4(C)[C@H]3CC[C@]12C)C(C)C [Fucosterol]
- 229E Inhibition rate: 20.9%

SMILES: CC(C)=CCc1c(O)cc2oc3cc(O)c(O)c(CCC(C)(C)O)c3c(=O)c2c1O [Garcinone C]
- 229E Inhibition rate: 34.9%

SMILES: CC(C)=CC(=O)O [3-Methylbut-2-enoic acid]
- 229E Inhibition rate: 8.4%

SMILES: COc1ccc(-c2cc(=O)c3c(O)cc(O[C@@H]4O[C@H](CO)[C@@H](O)[C@H](O)[C@H]4O[C@@H]4O[C@@H](C)[C@H](O)[C@@H](O)[C@H]4O)cc3o2)cc1O [Neodiosmin]
- 229E Inhibition rate: 15.9%

SMILES: CC(=O)N[C@@H](Cc1c[nH]c2ccccc12)C(=O)O [N-Acetyl-L-tryptophan]
- 229E Inhibition rate: 7.5%

SMILES: C=C(C)[C@H](CC=C(C)C)Cc1c(O)cc(O)c2c1O[C@H](c1ccccc1O)CC2=O [Kushenol A]
- 229E Inhibition rate: 10.8%

SMILES: COc1cc(OC)c2c(=O)cc(-c3ccccc3)oc2c1 [5,7-Dimethoxyflavone]
- 229E Inhibition rate: 15.8%

SMILES: C=C1[C@@H]2CC[C@@H]3[C@](C2)(C(=O)[C@@H](O)[C@@H]2C(C)(C)[C@H]4CC(=O)[C@@]32CO4)[C@@H]1OC(C)=O [Maoecrystal A]
- 229E Inhibition rate: 10.4%

SMILES: O=c1cc(-c2ccc(O)cc2)oc2cc(O[C@@H]3O[C@H](CO)[C@@H](O)[C@H](O)[C@H]3O[C@@H]3OC[C@](O)(CO)[C@H]3O)cc(O)c12 [Apiin]
- 229E Inhibition rate: 7.9%

SMILES: COc1ccc(C2COc3cc(O[C@@H]4O[C@H](CO)[C@@H](O)[C@H](O)[C@H]4O)ccc3C2)c(O)c1OC (some centres unmarked) [Isomucronulatol 7-O-glucoside]
- 229E Inhibition rate: 13%

SMILES: OCCc1c[nH]c2ccc(O)cc12 [5-Hydroxytryptophol]
- 229E Inhibition rate: 28.5%

SMILES: CC(C)=CCC[C@](C)(O)[C@H]1CC[C@]2(C)[C@@H]1[C@H](O)C[C@@H]1[C@@]3(C)CC[C@H](O[C@@H]4O[C@H](CO)[C@@H](O)[C@H](O)[C@H]4O[C@@H]4O[C@H](CO)[C@@H](O)[C@H](O)[C@H]4O)C(C)(C)[C@@H]3CC[C@]12C [20(S)-Ginsenoside Rg3]
- 229E Inhibition rate: 23.7%

SMILES: C[C@@H]1O[C@@H](O[C@H]2[C@H](O)[C@@H](O)[C@H](OC[C@H]3O[C@@H](OC(=O)[C@]45CCC(C)(C)C[C@H]4C4=CC[C@@H]6[C@@]7(C)CC[C@H](O[C@@H]8OC[C@H](O)[C@H](O)[C@H]8O)[C@@](C)(CO)[C@@H]7CC[C@@]6(C)[C@]4(C)CC5)[C@H](O)[C@@H](O)[C@@H]3O)O[C@@H]2CO)[C@H](O)[C@H](O)[C@H]1O [Cauloside D]
- 229E Inhibition rate (229E Inhibition rate, 24 h): 0%

SMILES: C[C@@H]1O[C@@H](O[C@H]2[C@H](O[C@H]3[C@H](O[C@H]4CC[C@]5(C)[C@H]6CC=C7[C@@H]8CC(C)(C)CC[C@]8(C(=O)O)CC[C@@]7(C)[C@]6(C)CC[C@H]5C4(C)C)OC[C@H](O)[C@@H]3O)O[C@H](CO)[C@@H](O)[C@@H]2O)[C@H](O)[C@H](O)[C@H]1O [Raddeanin A]
- 229E Inhibition rate: 5%

SMILES: COC(=O)[C@H]1O[C@@H](O[C@H]2CC[C@]3(C)[C@H]4CC=C5[C@@H]6CC(C)(C)CC[C@]6(C(=O)O)CC[C@@]5(C)[C@]4(C)CC[C@H]3[C@]2(C)C=O)[C@H](O)[C@@H](O)[C@@H]1O [Gypsogenin-3-O-glucuronide]
- 229E Inhibition rate: 16.2%

SMILES: CC(=O)N[C@@H](CC(C)C)C(=O)N[C@@H](CC(C)C)C(=O)N[C@H](C=O)CCCNC(=N)N [Leupeptin (hemisulfate)]
- 229E Inhibition rate: 0%

SMILES: CCCCCC1C(=O)CCC1CC(=O)OC (centres unmarked) [Methyl dihydrojasmonate]
- 229E Inhibition rate: 54.7%

SMILES: O=C1CCC[C@@H]2[C@H]3CCCN4CCC[C@@H](CN12)[C@@H]34 [Matrine]
- 229E Inhibition rate: 47.6%

SMILES: CC1(C)C[C@@H](O)[C@]2(C)CC[C@]3(C)C(=CC[C@@H]4[C@@]5(C)CC[C@H](O)[C@](C)(CO)[C@@H]5CC[C@]43C)[C@@H]2C1 [Soyasapogenol B]
- 229E Inhibition rate: 3.9%

SMILES: NCC(O)c1ccccc1 (centres unmarked) [2-Amino-1-phenylethanol]
- 229E Inhibition rate: 5.2%

SMILES: C[C@H]1O[C@@H](O[C@H]2CC[C@@]3(C)[C@@H](CC[C@]4(C)[C@@H]3C=CC3=C5CC(C)(C)CC[C@]5(CO)[C@@H](O)C[C@]34C)[C@]2(C)CO)[C@H](O[C@@H]2O[C@H](CO)[C@@H](O)[C@H](O)[C@H]2O)[C@@H](O[C@@H]2O[C@H](CO)[C@@H](O)[C@H](O)[C@H]2O)[C@H]1O [Buddlejasaponin IVb]
- 229E Inhibition rate: 0%

SMILES: Oc1ccc2c(c1)OC[C@]1(O)Cc3cc(O)c(O)cc3[C@H]21 [Brazilin]
- 229E Inhibition rate: 12.2%

SMILES: O=c1ccc2cc3ccoc3cc2o1 [Psoralen]
- 229E Inhibition rate: 40.1%

SMILES: O=C(/C=C/c1ccc(O)c(O)c1)c1ccc(O[C@@H]2O[C@H](CO)[C@@H](O)[C@H](O)[C@H]2O)c(O)c1O [Marein]
- 229E Inhibition rate: 17.9%

SMILES: C=C(C)[C@@H]1CC[C@]2(C(=O)O)CC[C@]3(C)[C@H](CC[C@@H]4[C@@]5(C)CC[C@H](O)C(C)(C)[C@@H]5CC[C@]43C)[C@@H]12 [Betulinic acid]
- 229E Inhibition rate: 8.7%

SMILES: COC(=O)C[C@H]1[C@]2(C)C3=C(C)[C@H](c4ccoc4)C[C@H]3O[C@@H]2[C@@H]2OC(=O)[C@]3(C)C=CC(=O)[C@@]1(C)[C@@H]23 [Nimbolide]
- 229E Inhibition rate: 3.3%
